Data from patent publication US5723594.
A negative result means that nothing was seen under these conditions.

The chains behind the UniProt entries cited, without tags or fusion partners. Residues count along the entry.
UniProt P01127, 82-190: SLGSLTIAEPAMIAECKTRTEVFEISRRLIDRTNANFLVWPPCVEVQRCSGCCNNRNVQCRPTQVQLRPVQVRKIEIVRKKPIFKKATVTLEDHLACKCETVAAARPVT

Target: PDGF-BB (Homo sapiens) (UniProt P01127)
Assay: activity in cells
Conditions: 3'-3' linked inverted T at 3' end; control ligand; thymidine incorporation; purified recombinant protein; protein details: R&D Systems, carrier-free, E. coli produced; single-stranded DNA; dose not given here

CAGTCCGTGGTAGGGCAGGTTGGGGTGACTTCGTGGAAT [T39 (thrombin ligand)]
functional effect of the aptamer: not active
